These results are taken from article PMC12744750 (Plant Communications, 2025).

Test [1] concerns the target T1, ETR1 with a C-terminal HA tag (ETR1:HA), pro35S::ETR1:HA (Arabidopsis) (UniProt P49333).
T1 sequence: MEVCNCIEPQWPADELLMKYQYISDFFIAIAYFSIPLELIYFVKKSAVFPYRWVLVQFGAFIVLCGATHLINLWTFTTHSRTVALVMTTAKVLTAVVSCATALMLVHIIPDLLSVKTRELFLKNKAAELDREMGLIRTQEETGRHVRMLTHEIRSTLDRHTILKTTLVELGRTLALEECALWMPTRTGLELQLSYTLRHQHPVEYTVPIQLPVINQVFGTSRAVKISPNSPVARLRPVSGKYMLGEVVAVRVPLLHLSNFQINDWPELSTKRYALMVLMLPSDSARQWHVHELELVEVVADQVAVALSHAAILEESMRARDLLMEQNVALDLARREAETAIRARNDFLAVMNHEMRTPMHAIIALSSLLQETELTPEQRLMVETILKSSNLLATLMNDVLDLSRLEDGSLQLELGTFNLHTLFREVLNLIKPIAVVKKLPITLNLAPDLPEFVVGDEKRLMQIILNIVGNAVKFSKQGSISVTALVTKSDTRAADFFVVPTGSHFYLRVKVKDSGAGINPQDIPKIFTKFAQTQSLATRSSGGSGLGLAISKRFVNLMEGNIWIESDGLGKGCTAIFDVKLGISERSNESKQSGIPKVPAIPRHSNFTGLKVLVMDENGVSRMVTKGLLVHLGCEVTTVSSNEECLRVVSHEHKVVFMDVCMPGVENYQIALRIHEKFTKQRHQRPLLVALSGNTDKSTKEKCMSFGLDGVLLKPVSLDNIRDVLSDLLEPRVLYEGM
In words: co-IP; anti-HA beads on protein extract of N. benthamiana leaves co-expressing ETR1:HA and PLS:GFP or GFP, 3 days after infiltration; blot with anti-GFP; with 0.5 μM CuSO4 or 2 mM EDTA added to the extract.

Test [2] concerns the target T1, ETR1 with a C-terminal HA tag (ETR1:HA), pro35S::ETR1:HA (Arabidopsis). The test can be described thus: co-IP; the PLS:GFP and ETR1:HA pair of the competition experiment, N. benthamiana leaf extract, with 0.5 μM CuSO4 and 50 μM MG-132.
Test [3] deals with T2, ETR1^306−738, recombinant, purified and fluorescently labeled (Arabidopsis) (UniProt P49333).
T2 sequence (chain, fluorescent label (dye and site not stated)): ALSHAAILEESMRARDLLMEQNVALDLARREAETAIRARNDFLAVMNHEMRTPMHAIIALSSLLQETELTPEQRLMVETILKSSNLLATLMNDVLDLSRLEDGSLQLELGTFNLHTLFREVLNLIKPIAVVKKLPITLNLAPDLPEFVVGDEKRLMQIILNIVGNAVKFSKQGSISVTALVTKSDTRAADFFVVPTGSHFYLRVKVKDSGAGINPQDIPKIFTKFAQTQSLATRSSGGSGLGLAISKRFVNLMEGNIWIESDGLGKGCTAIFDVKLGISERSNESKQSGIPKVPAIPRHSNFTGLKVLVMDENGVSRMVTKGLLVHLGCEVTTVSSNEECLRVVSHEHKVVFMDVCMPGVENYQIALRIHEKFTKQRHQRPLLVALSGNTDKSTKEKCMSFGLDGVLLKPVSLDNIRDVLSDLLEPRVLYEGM
In words: MST; fluorescently labeled ETR1 variant at 50 nM, synthetic PLS diluted serially from 94 μM; 50 mM Tris, 300 mM NaCl, pH 7.6 (or 50 mM HEPES, 150 mM NaCl), 0.015% (w/v) FosCholine 16; premium capillaries, 50% LED and 50% MST power; both purified.

Test [4] addresses T3, PLS linked to a C-terminal GFP (PLS:GFP), pro35S::PLS:GFP (Arabidopsis thaliana) (UniProt Q8LLV8).
T3 sequence: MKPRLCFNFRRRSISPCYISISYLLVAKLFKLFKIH
In words: co-IP; anti-GFP beads on protein extract of N. benthamiana leaves co-expressing PLS:GFP and ETR1:HA; blot with anti-HA; with or without EDTA.

No constants are given. Whether binding was seen depends on the method and setting. For some of these results: Binding seen in cells or lysates may run through a third protein. Some entries that bind do so weakly or less than the wild type. For some of these results: Tags and fused reporters may be left off the sequences shown.

As to MKPRLCFNFRRRSISPCYISISYLLVAKLFKLFKIH (peptide, UniProt Q8LLV8 1-36) [PLS linked to a C-terminal GFP (PLS:GFP), pro35S::PLS:GFP], the binding result in test [1] and in test [2] was “binds” in each case. MKPRLCFNFRRRSISPCYISISYLLVAKLFKLFKIH (peptide, UniProt Q8LLV8 1-36) [synthetic full-length POLARIS (PLS) peptide, PLS(FL)]: in test [3], the binding entry is “no binding (tested: PLS diluted serially from 94 μM)”.

B1: ETR1 with a C-terminal HA tag (ETR1:HA), pro35S::ETR1:HA (receptor, Arabidopsis, UniProt P49333 1-738, looked up)
chain: T1 sequence
notes: the ETR1 cDNA in pEarlyGate301; also called ETHYLENE RESPONSE 1; source: N. benthamiana leaves, transient expression by Agrobacterium infiltration, in protein extract; not shown: HA, C-terminal, kept
Regarding B1, the binding result in test [4] was “binds”.
